From article doi:10.1101/572222
Like-named read-outs stand apart in the source and are kept apart here. These are yes or no findings as the source states them, for the method shown. For some assays here: Binding seen in cells or lysates may run through a third protein. Some binding calls cover weakened binding; strength is not graded here. For some assays here: Where a sequence is shown, tags or fusion partners need not be part of it. One block for each molecule: values may come before it.

Protein sequences, listed by entry. Tags and fused reporters are not part of them. Lines headed by an entry give the natural chain unless they say otherwise; changes in a name come on top.
UniProt O75460: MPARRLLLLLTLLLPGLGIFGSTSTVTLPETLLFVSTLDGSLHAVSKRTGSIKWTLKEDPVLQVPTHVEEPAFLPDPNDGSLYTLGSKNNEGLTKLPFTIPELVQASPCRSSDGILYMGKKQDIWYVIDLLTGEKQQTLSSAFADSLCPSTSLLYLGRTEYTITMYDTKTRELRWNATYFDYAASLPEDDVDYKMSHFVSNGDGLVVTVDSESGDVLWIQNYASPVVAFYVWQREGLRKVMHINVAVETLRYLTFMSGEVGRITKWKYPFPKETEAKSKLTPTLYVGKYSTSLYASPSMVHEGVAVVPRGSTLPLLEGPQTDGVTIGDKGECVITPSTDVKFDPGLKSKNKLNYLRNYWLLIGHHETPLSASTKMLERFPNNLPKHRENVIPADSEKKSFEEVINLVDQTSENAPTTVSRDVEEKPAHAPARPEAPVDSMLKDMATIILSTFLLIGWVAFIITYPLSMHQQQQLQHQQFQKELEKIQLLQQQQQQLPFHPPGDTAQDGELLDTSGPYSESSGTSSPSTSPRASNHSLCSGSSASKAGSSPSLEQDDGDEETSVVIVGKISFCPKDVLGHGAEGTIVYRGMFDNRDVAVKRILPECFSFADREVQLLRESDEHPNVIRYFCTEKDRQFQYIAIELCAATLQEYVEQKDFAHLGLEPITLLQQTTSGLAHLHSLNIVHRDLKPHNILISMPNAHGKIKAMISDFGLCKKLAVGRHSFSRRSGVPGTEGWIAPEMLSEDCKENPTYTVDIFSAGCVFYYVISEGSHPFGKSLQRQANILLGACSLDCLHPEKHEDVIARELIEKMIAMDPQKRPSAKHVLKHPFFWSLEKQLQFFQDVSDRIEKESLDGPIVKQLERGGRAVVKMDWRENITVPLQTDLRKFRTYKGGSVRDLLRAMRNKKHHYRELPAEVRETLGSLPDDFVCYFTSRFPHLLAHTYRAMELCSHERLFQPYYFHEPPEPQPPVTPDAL
UniProt Q13323: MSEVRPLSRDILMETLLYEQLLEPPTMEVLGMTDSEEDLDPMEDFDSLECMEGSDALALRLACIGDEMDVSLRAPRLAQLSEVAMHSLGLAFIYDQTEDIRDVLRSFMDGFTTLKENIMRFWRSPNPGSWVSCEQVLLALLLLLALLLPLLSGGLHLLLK
UniProt P10415: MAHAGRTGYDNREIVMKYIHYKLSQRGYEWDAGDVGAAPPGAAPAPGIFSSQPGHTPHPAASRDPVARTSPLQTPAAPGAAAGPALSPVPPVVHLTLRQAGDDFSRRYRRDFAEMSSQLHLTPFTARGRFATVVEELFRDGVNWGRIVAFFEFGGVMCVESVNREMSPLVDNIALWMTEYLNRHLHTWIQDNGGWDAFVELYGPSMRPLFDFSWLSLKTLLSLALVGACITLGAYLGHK

What was measured:
[1] = target: T1, GST-tagged Bid (UniProt P55957); assay: co-IP
T1 sequence: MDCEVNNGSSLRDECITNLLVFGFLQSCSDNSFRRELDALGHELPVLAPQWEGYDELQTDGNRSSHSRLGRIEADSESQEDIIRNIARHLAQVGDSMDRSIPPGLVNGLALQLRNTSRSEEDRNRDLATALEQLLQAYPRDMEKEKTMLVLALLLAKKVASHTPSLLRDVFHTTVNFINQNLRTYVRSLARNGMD

[2] = target: Full length Ire1 (untagged) (human) (UniProt O75460); assay: co-IP
[3] = target: T2, Bid fused with the GAL4 DNA binding domain (UniProt P55957); assay: two-hybrid
T2 sequence: T1 sequence

[4] = target: Full length Ire1 (untagged) (human) (UniProt O75460); assay: co-IP; remark: listed apart in the source

Molecule: Full length Ire1 (untagged) (from UniProt O75460 19-977)
- binding [1]: binds

Molecule: GST-tagged Bik (from UniProt Q13323 1-160)
- binding [2]: no binding

Molecule: IRE1 fused with the GAL4 activation domain (from UniProt O75460 1-977)
- binding [3]: binds

The remaining lines, values ahead:

- binding [2]: no binding
Molecule: GST-tagged Bcl-2 (from UniProt P10415 1-239)

- binding [4]: binds
B1: GST-tagged Bid (protein, UniProt P55957 1-195)
chain: T1 sequence
